Experimental data as given in patent US7033772B1, “Methods of identifying inhibitors of fatty acid transport proteins (FATP)” (Millennium Pharmaceuticals, Inc., priority 1998, dated 2006).
At least one structure is not confirmed: it was looked up by name or label, or the drawing left a doubt.

Sequences of proteins named here, by UniProt entry; tags and fusion partners are left off. A change or cut given only in a name is not applied to a line headed by its entry.
UniProt Q6P1M0: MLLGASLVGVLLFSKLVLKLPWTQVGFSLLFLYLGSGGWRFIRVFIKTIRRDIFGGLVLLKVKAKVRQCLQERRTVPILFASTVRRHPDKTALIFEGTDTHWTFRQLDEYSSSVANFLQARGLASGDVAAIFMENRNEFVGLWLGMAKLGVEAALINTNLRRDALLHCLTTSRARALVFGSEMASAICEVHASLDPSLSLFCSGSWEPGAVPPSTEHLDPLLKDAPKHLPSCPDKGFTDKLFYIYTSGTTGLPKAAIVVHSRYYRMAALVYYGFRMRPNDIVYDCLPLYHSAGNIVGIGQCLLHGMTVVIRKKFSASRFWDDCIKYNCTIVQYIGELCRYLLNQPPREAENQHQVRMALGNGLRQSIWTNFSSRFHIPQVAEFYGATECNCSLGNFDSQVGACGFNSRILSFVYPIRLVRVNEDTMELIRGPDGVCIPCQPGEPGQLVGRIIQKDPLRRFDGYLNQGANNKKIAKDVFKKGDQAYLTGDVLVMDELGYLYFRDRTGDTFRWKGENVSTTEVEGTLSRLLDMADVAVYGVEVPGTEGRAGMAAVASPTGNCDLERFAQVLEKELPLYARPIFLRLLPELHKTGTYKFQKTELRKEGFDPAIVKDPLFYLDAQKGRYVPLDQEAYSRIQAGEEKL

Assays:
hsFATP4 = target: T1, hsFATP4 (Homo sapiens, UniProt Q6P1M0); assay: Uptake of radiolabeled substrates by 293 cells stably expressing FATP4; type: cell-based
T1 construct: expressed in transfected cells; host or cells: 293 cells (human kidney), stably transfected with pIRES-neo-hsFATP4, G418-selected
Experimental: Using a mammalian expression vector, we generated 40 stable […] cell lines expressing hsFATP4 and 20 cell lines transfected with a control plasmid.
(§1) Several of the cell lines with the highest amount of Bodipy-FA uptake as well as isolated primary enterocytes were used to measure the uptake of radiolabeled FAs.
(§2) Bodipy-FA uptake assays using FACS were performed, adapted to a 96-well format. LCFA uptake assays with enterocytes or with stably transfected 293 cells were done as follows. Mixed micelles of radiolabeled FA (NEN) and taurocholate (Sigma) in HBS were generated by brief sonication at 37° C. Equal volumes of cells and micelle solution were mixed, resulting in a final FA concentration of 25 μM for antisense assays and 10 μM for substrate specificity assays. Final taurocholate concentration was 5 mM. Cells were incubated for the indicated amount of time at 37° C. The assay was stopped by transferring the cells onto filter paper followed by extensive washes with ice-cold HBS containing 0.1% BSA using a cell harvester (Brandell). Incorporated oleate was then determined by β-scintillation counting (Beckman).

enterocytes = assay: Uptake of radiolabeled substrates by isolated primary enterocytes; type: cell-based, mouse; conditions: compared with transfected 293 cells
Experimental: as §1, §2

In the case of `CCCCC/C=C\C/C=C\C/C=C\C/C=C\CCCC(=O)O` [Arachidonate], the “Uptake, 293 Cells Stably Expressing FATP4” value (hsFATP4; 10 μM substrate in HBS with 5 mM taurocholate, rate over 4 min) is reported as 5 pmol/min 10^6 cells, the “Uptake, FATP4 specific” value (hsFATP4; FATP4-expressing minus control 293 cells, 10 μM substrate, 5 mM taurocholate) is reported as 2 pmol/min 10^6 cells and the “Effect of hsFATP4 expression on uptake of the substrate (in words)” value (hsFATP4; stably transfected 293 cells vs vector) is reported as “not”. For the same compound, the “Transport of the substrate by isolated primary enterocytes (in words)” value (enterocytes) was “absence of transport”.
